Results on one molecule are retold here after PMC3025356, “Mechanism of the Ca^2+-Dependent Interaction between S100A4 and Tail Fragments of Nonmuscle Myosin Heavy Chain IIA” (Journal of Molecular Biology, 2011).

The series has as its system M200 filaments. The series can be described thus: Stopped-flow turbidity, dissociation of M200 filaments on NaCl jump or dilution. It is filed as biochemical, human. The note with it: NaCl jump. The procedure:
Fig. 9 Dissociation of M200 filaments by S100A4. (a) Initially, M200 was added (i) from a concentrated stock in 0.5 M NaCl to give a final concentration of 5 μM M200 (with respect to the polypeptide chain) in 100 mM NaCl, 10 mM Hepes, and 0.1 mM Ca^2+ at pH 7.5 and 20 °C. A biphasic rise in turbidity was recorded for 200 s (continuous line). Then 10 μM S100A4 (with respect to monomer concentration) was added (ii), followed by 0.2 mM EGTA (iii) and 1 mM Ca^2+ (iv). […] (b) M200 was diluted (i) into 100 mM NaCl to form filaments as in (a), then 5 μM S100A4 was added (ii), causing a 54% drop in turbidity. A further 5 μM S100A4 (iii) caused turbidity to fall to almost zero. (c) Stopped-flow records monitoring the dissociation of 5 μM M200 filaments on jumping [NaCl] from 100 mM to 120 mM NaCl. Other components of the buffer were 20 mM Hepes, 1 mM Mg^2+, and 100 μM Ca^2+ at pH 7.5 and 20 °C. […] In the presence of 20 μM S100A4 (lower trace), the turbidity decreased by 87% with a rate constant of 0.2 s^− 1.
It is of interest to know whether S100A4 drives depolymerisation solely by binding to free M monomer and allowing the polymer equilibrium to readjust (i.e., via k− 4 and k5), or whether S100A4 also binds to the filament bundle and actively depolymerises an M200 unit (via k6 and k− 7). […] In an attempt to address this question, the dissociation rate of the M200 filament was followed on jumping the NaCl concentration from 100 mM to 120 mM in the absence and in the presence of S100A4 (Fig. 9c). Under these conditions in the absence of S100A4, turbidity dropped to about 50% of its initial value with a profile fitted to a double exponential (k1obs = 0.33 s^− 1 with 12% amplitude and k2obs = 0.037 s^− 1 with 43% amplitude, relative to the total amplitude expected for a full dissociation). Therefore, at the end point of this reaction, the filament concentration decreased by about 2-fold (turbidity is proportional to concentration over this range; Fig. S5b). There should also be a corresponding rise in M200 monomer concentration, but this may be less than accounted for by the loss of filaments if the drop in turbidity was also associated with a rise in small M200 oligomers with a lower specific turbidity. […]

B1: M200: His-tagged human NM-MHC IIA residues Q1761-E1960, V1913I substitution (protein, UniProt P35579 1761-1960, looked up, variant V1913I)
chain: QINTDLNLERSHAQKNENARQQLERQNKELKVKLQEMEGTVKSKYKASITALEAKIAQLEEQLDNETKERQAACKQVRRTEKKLKDVLLQVDDERRNAEQYKDQADKASTRLKQLKRQLEEAEEEAQRANASRRKLQRELEDATETADAMNREISSLKNKLRRGDLPFVVPRRMARKGAGDGSDEEVDGKADGAEAKPAE
modifications: His tag
notes: His-tagged human NM-MHC IIA residues Q1761-E1960, V1913I substitution
In the case of B1, for the setting “fraction of observed change”, the “fast amplitude, no S100A4” value was 22% and the “slow amplitude, no S100A4” value was 78%. For the setting “no S100A4”, the “fast amplitude relative to full dissociation” value is on record as 12% and the “slow amplitude relative to full dissociation” value amounted to 43%.
